Laboratory results reported in patent US20210196666.

Chains of the proteins cited; added tags and fusions are not shown. Lines headed by an entry give the natural chain unless they say otherwise; changes in a name come on top.
UniProt Q08050: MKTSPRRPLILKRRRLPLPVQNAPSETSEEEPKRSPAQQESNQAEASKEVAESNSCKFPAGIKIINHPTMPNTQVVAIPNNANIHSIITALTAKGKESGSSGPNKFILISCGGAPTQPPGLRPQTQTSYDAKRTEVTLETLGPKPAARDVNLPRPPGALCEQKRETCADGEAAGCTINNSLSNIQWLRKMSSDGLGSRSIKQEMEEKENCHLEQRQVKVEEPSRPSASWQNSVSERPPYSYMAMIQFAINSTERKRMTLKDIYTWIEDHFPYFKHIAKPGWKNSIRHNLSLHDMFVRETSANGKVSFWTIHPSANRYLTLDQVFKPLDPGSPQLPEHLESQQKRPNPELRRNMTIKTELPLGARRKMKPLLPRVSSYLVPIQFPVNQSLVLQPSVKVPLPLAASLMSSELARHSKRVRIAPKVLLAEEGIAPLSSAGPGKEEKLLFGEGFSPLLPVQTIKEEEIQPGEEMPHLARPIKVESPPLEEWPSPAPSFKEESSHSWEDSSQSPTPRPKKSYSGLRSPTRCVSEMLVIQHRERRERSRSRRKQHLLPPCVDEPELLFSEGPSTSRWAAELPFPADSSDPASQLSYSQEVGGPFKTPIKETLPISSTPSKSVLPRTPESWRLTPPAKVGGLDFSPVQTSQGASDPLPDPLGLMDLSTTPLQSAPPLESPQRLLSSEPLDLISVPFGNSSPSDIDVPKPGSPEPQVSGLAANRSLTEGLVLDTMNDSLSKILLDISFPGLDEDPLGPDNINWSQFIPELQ

Biological target: FoxM1 (UniProt Q08050)
Assay: EMSA
Details: extract from SLPI-treated MDA-MB-231 cells; supershifted by FoxM1 antibody; blocked by unlabeled FoxM1 oligo competitor; binding weaker in untreated extract; protein in an extract; protein details: endogenous, MDA-MB-231 cell protein extract; label: biotin end-label

## CTGTTCAAGATGGAGTCGCTCTGGTTC (double strand) [MMP2 promoter FoxM1-site probe]
  binding result: binds

Where cells or extracts were used, other partners may take part.
